# Screen size: about 140,000 compounds; about 4,300 (3.1%) were called active. Inconclusive results, whose numbers are uncertain, are shown with a selection of clear calls.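 How the source made its calls: active means readout at or below -70, meaning at least 70% loss of cells showing the perinucleolar compartment, a nuclear body marking cancer cells; inconclusive means readout between -30 and a set limit; inactive means the rest.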
# Experiment: High Content Assay for Compounds that inhibit the Assembly of the Perinucleolar Compartment;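 further: plate controls were DMSO wells for no effect and camptothecin positive control wells for full effect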
# Details: PC3M PTB-GFP, PNC prevalence imaging, 16 h; at 10 µM; active compounds read low
# Summary of the method: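 Read-out is percentage of cells bearing a perinucleolar compartment, from automated 20x imaging of fixed, Hoechst-stained PC3M PTB-GFP cells. Cells were seeded 4 h, then exposed 16 h to compound (23 nl of library stock) in duplicate plates.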
row,Structure (SMILES),"activity change (PNC), negative = inhibition"
1,O=C(CCCSc1nc(-c2ccco2)cc(C(F)(F)F)n1)NCc1cccs1,inconclusive: -40.5%
2,CCOC(=O)c1ccc(NC(=O)c2cc(S(=O)(=O)N3CCOCC3)ccc2O)cc1,inconclusive: -53.8%
3,COc1ccc(NC(=O)CSc2nc3ccccc3c(=O)n2CCNC(C)=O)cc1,inactive: 14.1%
4,CCOc1ccc(/C(O)=C2/C(=O)C(=O)N(CCOCCO)C2c2ccc(F)cc2)cc1 (centres undefined),inactive: 5.57%
5,CC1(C)Cc2ccccc2C(=C(C#N)C#N)N1,inconclusive: -55.9%
6,Cc1nn(C)cc1CNC(=O)c1cccc(Br)c1,inactive: 13.2%
7,CC(C)(C)n1nnnc1C(c1ccc(F)cc1)N(Cc1ccc(F)cc1)Cc1ccco1 (centres undefined),inactive: 31.4%
8,CCCOC(=O)c1ccc(N2C(=O)c3ccccc3C2=O)cc1,inactive: -21.8%
9,COc1ccc(CNC(=O)CSCc2ccccc2Cl)cc1,inconclusive: -55.9%
10,S=C1N(c2ccccc2)C(c2cccc3ccccc23)N2CCCN12 (centres undefined),inconclusive: -36.3%
11,CC1Cc2ccccc2N1C(=O)CSc1nc(N)cc(=O)[nH]1 (centres undefined),inactive: 10.7%
12,CCn1c(-c2ccc([N+](=O)[O-])cc2)n[nH]c1=S,inactive: 60.5%
13,O=C(Cc1cccs1)N1CCCC(c2nc3c(nnn3Cc3cccc(Cl)c3)c(=O)[nH]2)C1 (centres undefined),inactive: -10.6%
14,O=C(Nc1c(-c2cccs2)nc2ccccn12)c1ccc2ccccc2c1,inconclusive: -33.8%
15,CCN(CC)C(=O)C(C)OC(=O)c1ccc(O)cc1 (centres undefined),inconclusive: -36.1%
16,Cc1ccccc1N1C(=O)C(Cl)=C(N2CCN(c3ccccc3)CC2)C1=O,active: -84.9%
17,Cc1cc(Nc2ccccc2)n(-c2ccc(Br)cc2)n1,inconclusive: -47.6%
18,COC(=O)CN(c1ccccc1F)S(=O)(=O)c1ccccc1,inconclusive: -32.2%
19,Cc1cc(C)nc(SCc2cccc(C(=O)O)c2)n1,inconclusive: -40.5%
20,CC(C)NNC(=O)c1ccncc1,inconclusive: -34.9%

row,Structure (SMILES),"activity change (PNC), negative = inhibition"
1,CC(C(=O)Nc1ccc(S(=O)(=O)N2CCOCC2)cc1)N(c1ccccc1)S(C)(=O)=O (centres undefined),inconclusive: -55.9%
2,CCOC(=O)N1CCN(S(=O)(=O)c2ccc(C(=O)Nc3nnc(CSC)o3)cc2)CC1,inactive: 117%
3,COC(=O)CN(c1ccc(C(C)C)cc1)S(=O)(=O)c1c(C)[nH]c(=O)[nH]c1=O,inconclusive: -38.6%
4,CC(CC1CC(C)(C)OC1=O)C(=O)Nc1ccc([N+](=O)[O-])cc1 (centres undefined),inconclusive: -56.6%
5,O=C(CSc1nc2ccccc2c(=O)n1-c1ccccc1)NCc1ccc2c(c1)OCO2,inactive: 21.7%
6,CCCCCNCc1cccc(Br)c1,inactive: 25.2%
7,O=C(N/C(=C/c1ccco1)C(=O)N1CCCCC1)c1cccs1,inactive: 12.7%
8,CCOc1ccc(NC(=O)CC(c2ccccc2)c2ccc(F)cc2)cc1 (centres undefined),inconclusive: -41.2%
9,Cn1c(-c2cc(Br)ccc2O)n[nH]c1=S,inconclusive: -54.5%
10,O=C(Cc1ccc(Cl)cc1)NCC(=O)N1CCCC1,inconclusive: -68.6%
11,CCn1c(=O)c(C(=O)NCCc2ccccc2)c(O)c2ccccc21,inconclusive: -77.3%
12,Cc1ccc(C(=O)NN2C(=O)/C(=C/c3cccn3C)SC2=S)cc1,inconclusive: -76.8%
13,Cc1ccc(C)c(N2CCN(C(=O)c3ccccc3Br)CC2)c1,active: -80.1%
14,Cc1ccc(C(N)=O)cc1S(=O)(=O)Nc1cccc(C)c1C,inconclusive: -42%
15,CC(C)(C)Cn1c(=O)[nH]c(=O)c2cc([N+](=O)[O-])cnc21,active: -114%
16,CCOC(=O)c1ccc(-n2c(C)nc3ccccc3c2=O)cc1,inconclusive: -49.6%
17,COc1ccccc1N1CCN(C(=O)C(Sc2ccccc2)c2ccccc2)CC1 (centres undefined),inconclusive: -69.2%
18,O=c1c2cc(Cl)ccc2[nH]c(=S)n1Cc1ccccn1,inconclusive: -47.7%
19,CCCCCc1nnc(NC(=O)C2CCCO2)s1 (centres undefined),inactive: 40.5%
20,CCCOc1ccc(N2C(=O)CC(SC(=NCC)NCC)C2=O)cc1 (centres undefined),inconclusive: -35.8%

row,Structure (SMILES),"activity change (PNC), negative = inhibition"
1,CCC(=O)N(Cc1ccco1)c1nc(C(=O)Nc2ccc(Cl)cc2)c(C)s1,inactive: 29.1%
2,CCCCOC(=O)CSc1nnc(N)s1,inconclusive: -70.5%
3,CCCCn1c(SCC(=O)Nc2nnc(C)s2)nnc1-c1ccoc1C,inconclusive: -43.1%
4,Cc1cccc(CNC(=O)c2ccccc2N)c1,inconclusive: -52.7%
5,Cc1cc(C(=O)c2ccccc2)c(NC(=O)CN2CCOCC2)s1,inactive: 27.8%
6,Cc1cc(OCc2cc3c(cc2Cl)OCO3)c2c(C)cc(=O)oc2c1,inconclusive: -68.3%
7,COc1ccc(CCN2CN(S(=O)(=O)c3ccccc3)c3nc4ccccc4nc32)cc1,inconclusive: -68.5%
8,Cn1c(Cn2nnc3ccccc32)nnc1SCC(=O)N1CCc2ccccc21,inconclusive: -55.1%
9,CCn1cc(C(=O)NC2CCCCC2)c(=O)c2ccc(C)nc21,inconclusive: -30.2%
10,COc1ccc(NC(=S)NCCc2ccccc2OC)c(OC)c1,inconclusive: -42.2%
11,Cc1noc(C)c1COC(=O)CCc1ccc(S(=O)(=O)N2CCCCC2)cc1,inconclusive: -59.6%
12,CCOC(=O)C1CCN(C(c2cc3c(C)ccc(C)c3[nH]c2=O)c2nnnn2C2CCCCC2)CC1 (centres undefined),inactive: -0.821%
13,O=C(Nc1cccnc1)c1cn(-c2ccccc2)nc1-c1cccs1,inconclusive: -36.2%
14,O=C1CC(N2CCN(c3ccc(S(=O)(=O)N4CCOCC4)cc3)CC2)C(=O)N1Cc1ccccc1 (centres undefined),inconclusive: -45.9%
15,CCCCCc1nnc(NC(=O)Cc2cccs2)s1,inconclusive: -33.8%
16,Cc1cc(C(=O)Nc2sc3c(c2C#N)CCCC3)no1,inactive: -12.8%
17,NS(=O)(=O)c1ccc(Nc2nc(-c3ccc(O)cc3)cs2)cc1,inconclusive: -42%
18,Cc1cc(C)nc(Sc2ccc(/C=C(\C#N)C(N)=O)o2)n1,inconclusive: -43.2%
19,Cc1ccc(CN2CCN(/N=C/c3cc(Br)cc(Br)c3O)CC2)c(C)c1,inactive: -10.7%

# Filtered by structure, the entries above containing a tert-butyl group (2)
row,Structure (SMILES),"activity change (PNC), negative = inhibition"
7,CC(C)(C)n1nnnc1C(c1ccc(F)cc1)N(Cc1ccc(F)cc1)Cc1ccco1 (centres undefined),inactive: 31.4%
15,CC(C)(C)Cn1c(=O)[nH]c(=O)c2cc([N+](=O)[O-])cnc21,active: -114%

# — PubChem BioAssay AID2417 (National Center for Advancing Translational Sciences (NCATS), 2010)
